# Test system: Jurkat and primary T cells
# Assay: Western blot for acetylated histone H3 and acetylated tubulin
# Type: cell-based
# Conditions: 8 hours
smiles,measurement,value
"O=C(CCCCCCC(=O)Nc1ccccc1)NO [SAHA, suberoylanilide hydroxamic acid]",inhibition of deacetylation of histone H3 and tubulin,inhibit deacetylation of both histone H3 and tubulin

# — patent US10421778B2, “Isoform-selective lysine deacetylase inhibitors” (WASHINGTON UNIVERSITY, priority 2015, dated 2019)
